Laboratory results from the supplement of paper PMC8551327.
Some of the results follow. No stated cut-off is given here; in the data, active = 1.25 or more and inactive = the rest. Single values are uncertain, as repeats are few or missing.

Tested on: Kcc2-LUC knock-in mouse primary cortical neurons (Kcc2 promoter reporter)
Assay: Kcc2 promoter-driven luciferase activity relative to vehicle control (fold of vehicle (ratio)); higher = stronger Kcc2 promoter activation (Kcc2 expression enhancer)
Settings: 100 nM; 48 h

SMILES	Kcc2 promoter-driven luciferase activity
O=C([CH-]C(=O)C(F)(F)F)c1ccccc1.O=C([CH-]C(=O)C(F)(F)F)c1ccccc1.O=C([CH-]C(=O)C(F)(F)F)c1ccccc1.O=C([CH-]C(=O)C(F)(F)F)c1ccccc1.[Eu+3].c1ccncc1 [Piperidinium europium benzoyl trifluoroacetonate]	inactive: 0.25
C[C@H]1C(=O)O[C@@H]2CCN3CC=C(COC(=O)[C@](C)(O)[C@]1(C)O)[C@H]23 [Monocrotalin]	inactive: 0.49
CO[C@@H]1[C@H](O)C[C@@H](O[C@@H]2C[C@H](Oc3cc4cc5c(c(O)c4c(O)c3C)C(=O)[C@@H](O[C@H]3C[C@@H](O[C@H]4C[C@@H](O[C@H]6C[C@](C)(O)[C@@H](OC(C)=O)[C@H](C)O6)[C@H](O)[C@@H](C)O4)[C@H](O)[C@@H](C)O3)[C@H]([C@H](OC)C(=O)[C@@H](O)[C@@H](C)O)C5)O[C@H](C)[C@@H]2OC(C)=O)O[C@@H]1C [Chromomycin a3]	inactive: 0.61
CN1C(=O)[C@]23CC4=CC=C[C@H](O)[C@H]4N2C(=O)[C@@]1(CO)SS3 [Gliotoxin]	inactive: 0.64
CC[C@](C)(O)C(=O)O[C@H]1C(=O)O[C@@H]2C[C@H]3C(C)=C[C@H](O)[C@@H](O)[C@]3(C)[C@H]3[C@@]4(O)OC[C@]32[C@@H]1[C@@H](C)[C@H]4O	inactive: 0.666
N#CC(NCc1cccc(CNC(C#N)c2ccccc2)c1)c1ccccc1 (configuration not stated)	inactive: 0.97
C=C1C(=O)O[C@H]2C[C@@]3(C)O[C@@H]3CC/C(C)=C/[C@@H](OC(C)=O)[C@H]12 [Pyrethrosin]	inactive: 0.58
